# Measurements published in the supplement of paper PMC8728848.
# Some of the results follow.
# Experiments:
# Assay in all cases: glycan array binding signal (z-score within array); higher = stronger binding
# Details in all cases: glycan notation: IUPAC condensed, linker removed
# [1] = biological target: Neu5Ac(a2-3)Gal6S(b1-4)[Fuc(a1-3)]GlcNAc
# How it was run: (§1)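 Columns mapping to the same glycan were averaged after glycan names were converted to IUPAC-condensed notation. The data come from 3228 arrays in the Consortium for Functional Glycomics database, limited to those with an available protein sequence. Binding is reported as a within-array Z-score averaged across arrays of one protein sequence and across linkers.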
# Neu5Ac(a2-3)GalNAc = biological target: Neu5Ac(a2-3)GalNAc
# How it was run: as §1
# [2] = biological target: Neu5Ac(a2-3)GalNAc(b1-4)GlcNAc
# How it was run: as §1
# [3] = biological target: Neu5Ac(a2-3)[GalNAc(b1-4)]Gal(b1-4)Glc
# How it was run: as §1
# [4] = biological target: Neu5Ac(a2-3)[GalNAc(b1-4)]Gal(b1-4)GlcNAc
# How it was run: as §1
# [5] = biological target: Neu5Ac(a2-3)[GalNAc(b1-4)]Gal(b1-4)GlcNAc(b1-3)GalNAc
# How it was run: as §1
# [6] = biological target: Neu5Ac(a2-3)[Neu5Ac(a2-6)]GalNAc
# How it was run: as §1
# Neu5Ac(a2-6)Gal = biological target: Neu5Ac(a2-6)Gal
# How it was run: as §1
# [7] = biological target: Neu5Ac(a2-6)Gal(b1-3)GlcNAc(b1-3)[Gal(b1-4)GlcNAc(b1-6)]Gal(b1-4)Glc
# How it was run: as §1
# Neu5Ac(a2-6)Gal(b1-4)Glc = biological target: Neu5Ac(a2-6)Gal(b1-4)Glc
# How it was run: as §1
# [8] = biological target: Neu5Ac(a2-6)Gal(b1-4)GlcNAc
# How it was run: as §1
# [9] = biological target: Neu5Ac(a2-6)Gal(b1-4)GlcNAc(b1-2)Man
# How it was run: as §1
# [10] = biological target: Neu5Ac(a2-6)Gal(b1-4)GlcNAc(b1-2)Man(a1-3)Man(b1-4)GlcNAc(b1-4)GlcNAc
# How it was run: as §1
# [11] = biological target: Neu5Ac(a2-6)Gal(b1-4)GlcNAc(b1-2)Man(a1-3)[Gal(b1-4)GlcNAc(b1-2)Man(a1-6)]Man(b1-4)GlcNAc(b1-4)GlcNAc
# How it was run: as §1
# [12] = biological target: Neu5Ac(a2-6)Gal(b1-4)GlcNAc(b1-2)Man(a1-3)[GlcNAc(b1-2)Man(a1-6)]Man(b1-4)GlcNAc(b1-4)GlcNAc
# How it was run: as §1
# [13] = biological target: Neu5Ac(a2-6)Gal(b1-4)GlcNAc(b1-2)Man(a1-3)[GlcNAc(b1-4)][Neu5Ac(a2-6)Gal(b1-4)GlcNAc(b1-2)Man(a1-6)]Man(b1-4)GlcNAc(b1-4)GlcNAc
# How it was run: as §1
# [14] = biological target: Neu5Ac(a2-6)Gal(b1-4)GlcNAc(b1-2)Man(a1-3)[Man(a1-6)]Man(b1-4)GlcNAc(b1-4)GlcNAc
# How it was run: as §1
# [15] = biological target: Neu5Ac(a2-6)Gal(b1-4)GlcNAc(b1-2)Man(a1-3)[Neu5Ac(a2-3)Gal(b1-4)GlcNAc(b1-2)Man(a1-6)]Man(b1-4)GlcNAc(b1-4)GlcNAc
# How it was run: as §1
# [16] = biological target: Neu5Ac(a2-6)Gal(b1-4)GlcNAc(b1-2)Man(a1-3)[Neu5Ac(a2-6)Gal(b1-4)GlcNAc(b1-2)Man(a1-6)]Man(b1-4)GlcNAc(b1-4)GlcNAc
# How it was run: as §1
# [17] = biological target: Neu5Ac(a2-6)Gal(b1-4)GlcNAc(b1-2)Man(a1-3)[Neu5Ac(a2-6)Gal(b1-4)GlcNAc(b1-2)Man(a1-6)]Man(b1-4)GlcNAc(b1-4)[Fuc(a1-6)]GlcNAc
# How it was run: as §1
# [18] = biological target: Neu5Ac(a2-6)Gal(b1-4)GlcNAc(b1-2)Man(a1-6)Man(b1-4)GlcNAc(b1-4)GlcNAc
# How it was run: as §1
# [19] = biological target: Neu5Ac(a2-6)Gal(b1-4)GlcNAc(b1-2)Man(a1-6)[Gal(b1-4)GlcNAc(b1-2)Man(a1-3)]Man(b1-4)GlcNAc(b1-4)GlcNAc
# How it was run: as §1
# [20] = biological target: Neu5Ac(a2-6)Gal(b1-4)GlcNAc(b1-2)Man(a1-6)[GlcNAc(b1-2)Man(a1-3)]Man(b1-4)GlcNAc(b1-4)GlcNAc
# How it was run: as §1
# [21] = biological target: Neu5Ac(a2-6)Gal(b1-4)GlcNAc(b1-2)Man(a1-6)[Man(a1-3)]Man(b1-4)GlcNAc(b1-4)GlcNAc
# How it was run: as §1
# [22] = biological target: Neu5Ac(a2-6)Gal(b1-4)GlcNAc(b1-2)[Neu5Ac(a2-6)Gal(b1-4)GlcNAc(b1-4)]Man(a1-3)[GlcNAc(b1-4)][Neu5Ac(a2-6)Gal(b1-4)GlcNAc(b1-2)[Neu5Ac(a2-6)Gal(b1-4)GlcNAc(b1-6)]Man(a1-6)]Man(b1-4)GlcNAc(b1-4)GlcNAc
# How it was run: as §1
# [23] = biological target: Neu5Ac(a2-6)Gal(b1-4)GlcNAc(b1-2)[Neu5Ac(a2-6)Gal(b1-4)GlcNAc(b1-4)]Man(a1-3)[GlcNAc(b1-4)][Neu5Ac(a2-6)Gal(b1-4)GlcNAc(b1-4)Man(a1-6)]Man(b1-4)GlcNAc(b1-4)GlcNAc
# How it was run: as §1
# [24] = biological target: Neu5Ac(a2-6)Gal(b1-4)GlcNAc(b1-2)[Neu5Ac(a2-6)Gal(b1-4)GlcNAc(b1-6)]Man(a1-6)[Neu5Ac(a2-6)Gal(b1-4)GlcNAc(b1-2)Man(a1-3)][GlcNAc(b1-4)]Man(b1-4)GlcNAc(b1-4)GlcNAc
# How it was run: as §1
# [25] = biological target: Neu5Ac(a2-6)Gal(b1-4)GlcNAc(b1-3)Gal(b1-3)GlcNAc
# How it was run: as §1
# [26] = biological target: Neu5Ac(a2-6)Gal(b1-4)GlcNAc(b1-3)Gal(b1-4)GlcNAc
# How it was run: as §1
# [27] = biological target: Neu5Ac(a2-6)Gal(b1-4)GlcNAc(b1-3)Gal(b1-4)GlcNAc(b1-2)Man(a1-3)[Neu5Ac(a2-6)Gal(b1-4)GlcNAc(b1-3)Gal(b1-4)GlcNAc(b1-2)Man(a1-6)]GalNAc
# How it was run: as §1
# [28] = biological target: Neu5Ac(a2-6)Gal(b1-4)GlcNAc(b1-3)Gal(b1-4)GlcNAc(b1-3)Gal(b1-4)GlcNAc
# How it was run: as §1
# [29] = biological target: Neu5Ac(a2-6)Gal(b1-4)GlcNAc(b1-3)Gal(b1-4)GlcNAc(b1-3)Gal(b1-4)GlcNAc(b1-2)Man(a1-3)[Neu5Ac(a2-6)Gal(b1-4)GlcNAc(b1-3)Gal(b1-4)GlcNAc(b1-3)Gal(b1-4)GlcNAc(b1-2)Man(a1-6)]GalNAc
# How it was run: as §1
# [30] = biological target: Neu5Ac(a2-6)Gal(b1-4)GlcNAc(b1-3)Gal(b1-4)GlcNAc(b1-3)GalNAc
# How it was run: as §1
# [31] = biological target: Neu5Ac(a2-6)Gal(b1-4)GlcNAc(b1-3)Gal(b1-4)GlcNAc(b1-3)[Neu5Ac(a2-6)Gal(b1-4)GlcNAc(b1-3)Gal(b1-4)GlcNAc(b1-6)]GalNAc
# How it was run: as §1
# [32] = biological target: Neu5Ac(a2-6)Gal(b1-4)GlcNAc(b1-3)Gal(b1-4)GlcNAc(b1-6)[Gal(b1-3)]GalNAc
# How it was run: as §1
# [33] = biological target: Neu5Ac(a2-6)Gal(b1-4)GlcNAc(b1-3)Gal(b1-4)[Fuc(a1-3)]GlcNAc(b1-3)Gal(b1-4)[Fuc(a1-3)]GlcNAc
# How it was run: as §1
# [34] = biological target: Neu5Ac(a2-6)Gal(b1-4)GlcNAc(b1-3)GalNAc
# How it was run: as §1
# [35] = biological target: Neu5Ac(a2-6)Gal(b1-4)GlcNAc(b1-3)[Neu5Ac(a2-6)Gal(b1-4)GlcNAc(b1-6)]GalNAc
# How it was run: as §1
# [36] = biological target: Neu5Ac(a2-6)Gal(b1-4)GlcNAc(b1-6)GalNAc
# How it was run: as §1
# [37] = biological target: Neu5Ac(a2-6)Gal(b1-4)GlcNAc(b1-6)[Gal(b1-3)GlcNAc(b1-3)]Gal(b1-4)Glc
# How it was run: as §1
# [38] = biological target: Neu5Ac(a2-6)Gal(b1-4)GlcNAc(b1-6)[Gal(b1-3)]GalNAc
# How it was run: as §1
# [39] = biological target: Neu5Ac(a2-6)Gal(b1-4)GlcNAc6S
# How it was run: as §1
# Neu5Ac(a2-6)GalNAc = biological target: Neu5Ac(a2-6)GalNAc
# How it was run: as §1
# [40] = biological target: Neu5Ac(a2-6)GalNAc(b1-4)GlcNAc
# How it was run: as §1
# [41] = biological target: Neu5Ac(a2-6)GalNAc(b1-4)GlcNAc6S
# How it was run: as §1
binder,measurement,setting,value
"SUN4 (Saccharomyces cerevisiae), P53616 (protein) MGSSHHHHHHSSGLVPRGSHNGSIYGDLADFSGPYEKFEDGTIPCGQFPSGQGVIPISWLDEGGWSGVENTDTSTGGSCKEGSYCSYACQPGMSKTQWPSDQPSDGRSIGGLLCKDGYLYRSNTDTDYLCEWGVDAAYVVSELSNDVAICRTDYPGTENMVIPTYVQAGDSLPLTVVDQDTYYTWQGLKTSAQYYVNNAGISVEDACVWGSSSSGVGNWAPLNFGAGSSDGVAYLSLIPNPNNGNALNFNVKIVAADDSSTVNGECIYENGSFSGGSDGCTVSVTAGKAKFVLYN",glycan array binding signal (z-score),[1],-0.936
same,glycan array binding signal (z-score),Neu5Ac(a2-3)GalNAc,-0.321
same,glycan array binding signal (z-score),[2],-0.371
same,glycan array binding signal (z-score),[3],0.365
same,glycan array binding signal (z-score),[4],-0.706
same,glycan array binding signal (z-score),[5],-0.441
same,glycan array binding signal (z-score),[6],0.557
same,glycan array binding signal (z-score),Neu5Ac(a2-6)Gal,1.38
same,glycan array binding signal (z-score),[7],-0.91
same,glycan array binding signal (z-score),Neu5Ac(a2-6)Gal(b1-4)Glc,-0.344
same,glycan array binding signal (z-score),[8],-0.205
same,glycan array binding signal (z-score),[9],-0.293
same,glycan array binding signal (z-score),[10],-0.036
same,glycan array binding signal (z-score),[11],-0.726
same,glycan array binding signal (z-score),[12],-0.903
same,glycan array binding signal (z-score),[13],0.646
same,glycan array binding signal (z-score),[14],0.926
same,glycan array binding signal (z-score),[15],-0.297
same,glycan array binding signal (z-score),[16],0.023
same,glycan array binding signal (z-score),[17],0.827
same,glycan array binding signal (z-score),[18],0.342
same,glycan array binding signal (z-score),[19],-0.358
same,glycan array binding signal (z-score),[20],-0.298
same,glycan array binding signal (z-score),[21],1.05
same,glycan array binding signal (z-score),[22],1.09
same,glycan array binding signal (z-score),[23],-0.299
same,glycan array binding signal (z-score),[24],1.28
same,glycan array binding signal (z-score),[25],-0.754
same,glycan array binding signal (z-score),[26],0.015
same,glycan array binding signal (z-score),[27],0.933
same,glycan array binding signal (z-score),[28],-0.333
same,glycan array binding signal (z-score),[29],0.851
same,glycan array binding signal (z-score),[30],-0.016
same,glycan array binding signal (z-score),[31],0.082
same,glycan array binding signal (z-score),[32],0.227
same,glycan array binding signal (z-score),[33],-0.564
same,glycan array binding signal (z-score),[34],0.242
same,glycan array binding signal (z-score),[35],0.213
same,glycan array binding signal (z-score),[36],1.03
same,glycan array binding signal (z-score),[37],-0.171
same,glycan array binding signal (z-score),[38],-0.136
same,glycan array binding signal (z-score),[39],-1.46
same,glycan array binding signal (z-score),Neu5Ac(a2-6)GalNAc,-1.52
same,glycan array binding signal (z-score),[40],-1.09
same,glycan array binding signal (z-score),[41],0.559

# Exported bar-delimited: entries from further up.
binder | measurement | setting | value
SUN4 (Saccharomyces cerevisiae), P53616 (protein) MGSSHHHHHHSSGLVPRGSHNGSIYGDLADFSGPYEKFEDGTIPCGQFPSGQGVIPISWLDEGGWSGVENTDTSTGGSCKEGSYCSYACQPGMSKTQWPSDQPSDGRSIGGLLCKDGYLYRSNTDTDYLCEWGVDAAYVVSELSNDVAICRTDYPGTENMVIPTYVQAGDSLPLTVVDQDTYYTWQGLKTSAQYYVNNAGISVEDACVWGSSSSGVGNWAPLNFGAGSSDGVAYLSLIPNPNNGNALNFNVKIVAADDSSTVNGECIYENGSFSGGSDGCTVSVTAGKAKFVLYN | glycan array binding signal (z-score) | [10] | -0.036
same | glycan array binding signal (z-score) | [11] | -0.726
same | glycan array binding signal (z-score) | [12] | -0.903
same | glycan array binding signal (z-score) | [13] | 0.646
